Laboratory results reported in PubChem BioAssay AID651640 (Broad Institute, 2012).
Hit rate of the full screen: of about 350,000 compounds, about 6,000 (1.7%) were called active. This list was built around the results that the source calls inconclusive (neither active nor inactive); the mix of calls is not that of the screen. No stated cut-off is given here; in the data, active means CPE inhibition above about 20% (passing the limit was not always enough); inconclusive means no clear call, values can overlap the other calls; tested in BHK-21 cells.

assay: protection of cells from dengue 2 killing – plate reader, single concentration, primary screen (AID 651640); details: DENV2-infected cells, cytopathic effect rescue, at 9.99 µM, active compounds read high;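 further: 0% = median of neutral control wells and 100% = median of positive control wells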

| Compound | CPE inhibition |
| --- | --- |
| C[C@@H]1CCCCO[C@@H](CN(C)C(=O)Nc2ccc(C(F)(F)F)cc2)[C@H](C)CN([C@@H](C)CO)C(=O)c2cc(NC(=O)c3ccncc3)ccc2O1 | active: 75.9% |
| CCCCNC(=O)Cn1nnc(-c2ccccc2)c1COc1ccc(C(C)=O)cc1 | inconclusive: 59.6% |
| CCN(C(=O)c1ccc(Cl)c(S(=O)(=O)Nc2c(C)n(C)n(-c3ccccc3)c2=O)c1)c1ccccc1 | inconclusive: 40.4% |
| COc1ccc(CNC(=O)C[C@@H]2C=C[C@@H](NC(=O)Nc3ccc4c(c3)OCO4)[C@H](CO)O2)cc1 | inactive: -6.23% |
| Cc1cc(C)n2nc(C(=O)OCC(=O)NNC(=O)c3ccc(Cl)cc3)nc2n1 | inconclusive: 37.2% |
| COc1ccc2c3c(n(C)c2c1)[C@H](CO)N(C)CC31CN(C(=O)Nc2cccc(F)c2)C1 | inactive: 6% |
| Cc1ccccc1C1=NC(C(F)(F)F)(C(F)(F)F)c2c(n(-c3ccc(F)cc3)c(=O)[nH]c2=O)N1 | active: 22.3% |
| C[C@H]1CN([C@@H](C)CO)C(=O)CCCn2cc(nn2)CO[C@H]1CN(C)S(=O)(=O)c1cccs1 | inconclusive: 28.9% |
| COc1cc(NC(=O)N2CCc3nc(Nc4cc(Cl)cc(Cl)c4)ncc3C2)cc(OC)c1OC | active: 46.5% |
| COc1ccc(Br)cc1CN(C)C(=O)c1ccncc1 | inconclusive: 39.9% |
| C[C@H]1CN([C@@H](C)CO)C(=O)c2cc(NC(=O)Nc3ccc(F)cc3)ccc2O[C@H]1CN(C)Cc1ccccc1 | active: 24.5% |
| COc1ccc(C2NC(=O)NC(C)=C2C(=O)Nc2cccc(C)c2C)cc1 (configuration not stated) | active: 60.1% |
| O=C(COC(=O)Cc1c(F)cccc1Cl)NCc1ccc2c(c1)OCO2 | inconclusive: 21.4% |
| COc1cc(C(C)=O)ccc1OCc1cn(CC(=O)c2ccc(O)cc2)nn1 | inactive: 6.79% |
| COC(=O)C[C@@H]1CC[C@@H]2[C@H](COc3ccc(NC(=O)c4ccc(F)c(F)c4)cc3C(=O)N2C)O1 | inconclusive: 20.7% |
| Cc1ccccc1-c1cnc2c(c1)C(=O)N([C@@H](C)CO)C[C@H](C)[C@@H](CN(C)Cc1cccnc1)O2 | inconclusive: 21.4% |
| CNC[C@H]1Oc2ncc(C#Cc3ccccc3F)cc2C(=O)N([C@@H](C)CO)C[C@H]1C | active: 70.9% |
| O=C(NCc1ccc(Cl)cc1)c1ccc(-c2ccc(F)c(F)c2)c2ccoc12 | inconclusive: 49.7% |
| O=C(CN(c1ccccc1)S(=O)(=O)c1ccc(F)cc1)NCc1cccs1 | inconclusive: 52.4% |
| C[C@H]1CN([C@@H](C)CO)C(=O)Cc2cc(NC(=O)CCC(F)(F)F)ccc2O[C@H]1CN(C)Cc1ccc(-c2ccccc2)cc1 | active: 57.3% |
| COc1ccc(CNC(=O)C[C@H]2CC[C@@H](NC(=O)Nc3ccc4c(c3)OCO4)[C@@H](CO)O2)cc1 | inactive: -7.38% |
| O=C(c1ccncc1)N1CC(=O)N2[C@H](CO)[C@@H](c3ccc(-c4ccccc4F)cc3)[C@@H]2C1 | inconclusive: 35.1% |
| CC(C)c1ccc(NC(=O)[C@H](NC(=O)[C@@H]2Cc3ccccc3CN2)c2ccccc2)cc1 | active: 56.7% |
| COc1ccc(C(CCN2CCOCC2)c2c(OC)cc(OC)c3c(C)cc(=O)oc23)cc1 (configuration not stated) | active: 55.8% |

An excerpt of these results, tab-delimited:
Compound	CPE inhibition
O=C(c1ccncc1)N1CC(=O)N2[C@H](CO)[C@@H](c3ccc(-c4ccccc4F)cc3)[C@@H]2C1	inconclusive: 35.1%
CC(C)c1ccc(NC(=O)[C@H](NC(=O)[C@@H]2Cc3ccccc3CN2)c2ccccc2)cc1	active: 56.7%

Remaining list, next part.

| Compound | CPE inhibition |
| --- | --- |
| COc1ccc(-n2c(Cc3cccn3C)nnc2SCC(=O)Nc2nc(C)cs2)cc1 | inconclusive: 23.9% |
| O=C(N/C(=C/c1ccc(Cl)cc1)C(=O)N1CCCCC1)c1ccco1 | inconclusive: 45.2% |
| Cc1ccc(C(=O)NNC(=O)c2ccc3ccccc3c2O)cc1 | inactive: -3.25% |
| O=C(NC1CC1)c1ccc(NC(=O)C2CCCC2)cc1 | active: 71.6% |
| COCCN(C(=O)COC(=O)/C=C/c1cccs1)c1c(N)n(Cc2ccccc2)c(=O)[nH]c1=O | inconclusive: 34.7% |
| Cc1c(C(=O)N2CCCC2)oc2c1-c1nn(CC(=O)NCCCN3CCCCC3C)cc1CC2 (configuration not stated) | inconclusive: 27.3% |
| CCOC(=O)C(Oc1ccc2c(-c3ccccc3)cc(=O)oc2c1C)c1ccccc1 (configuration not stated) | inconclusive: 22.5% |
| COc1ccc(OCC(=O)Nc2ccc3c(c2)nc(CCN2CCCC2)n3C)cc1 | inconclusive: 21.3% |
| CC(C)=CCN(C(=O)C#Cc1ccccc1)[C@H](CO)c1ccccc1 | inactive: -3.05% |
| CCOC(=O)C1=CN(Cc2cccc(Br)c2)S(=O)(=O)N(C)C1C (configuration not stated) | active: 37.4% |
| C[C@H](CO)N1C[C@H](C)[C@H](CN(C)C(=O)Nc2ccc(C(F)(F)F)cc2)Oc2c(NC(=O)Nc3cccc4ccccc34)cccc2C1=O | inconclusive: 33.8% |
| NC(=O)c1ccsc1NC(=O)COC(=O)CNC(=O)c1cccc([N+](=O)[O-])c1 | inconclusive: 44.5% |
| CCCCN(C(=O)c1ccccc1OCc1ccc(F)cc1)c1c(N)n(CC(C)C)c(=O)[nH]c1=O | active: 66.4% |
| COCC(=O)NC[C@@H]1[C@@H](c2ccc(C3=CCCC3)cc2)[C@@H](CO)N1C(=O)C1CC1 | active: 25.1% |
| CC(C)CNC(=O)C1(C)CCCN1C(=O)c1c(Cl)cccc1Cl (configuration not stated) | inconclusive: 20.2% |
| O=C(Cn1ncc2c3ccccc3n(Cc3cccc(Cl)c3)c2c1=O)NCC1CCCO1 (configuration not stated) | inactive: 4.27% |
| C[C@@H]1CN([C@H](C)CO)C(=O)c2cccc(NS(=O)(=O)c3ccc(F)cc3)c2O[C@H]1CN(C)C | inactive: 5.5% |
| Cc1ccc(C)c(CN2C(=O)c3ccccc3S(=O)c3ccc(C(=O)NCCCN4CCCC4)cc32)c1 (configuration not stated) | inactive: 3.14% |
| COc1ccccc1OCCn1cc(C(=O)C(C)C)c2ccccc21 | inconclusive: 26.7% |
| COCCn1c(SCC(=O)N2CCC(C)CC2)nc2c(c1=O)SCC2 | inactive: 1.74% |
| C[C@@H]1CN([C@@H](C)CO)C(=O)c2cc(NC(=O)c3ccncc3)ccc2O[C@@H](C)CCCCO[C@@H]1CN(C)C(=O)c1ccccc1 | inconclusive: 73.9% |
| OCC[C@H]1C[C@@H](O)[C@H](O)[C@]2(Cc3ccccc3CCO2)O1 | active: 47.4% |
| CCCNC(=O)N[C@H]1CC[C@H](CCn2cc(-c3cccc(F)c3)nn2)O[C@@H]1CO | inconclusive: 34.2% |

2 compounds picked at random from the list so far:

| Compound | CPE inhibition |
| --- | --- |
| OCC[C@H]1C[C@@H](O)[C@H](O)[C@]2(Cc3ccccc3CCO2)O1 | active: 47.4% |
| O=C(NC1CC1)c1ccc(NC(=O)C2CCCC2)cc1 | active: 71.6% |
